# Laboratory results as given in the supplement of paper PMC8728848.
# Some of the results follow.
# B1: Epa3to2 (Candida glabrata) (protein)
# chain: MGSSHHHHHHSSGLVPRGSHMKRELSSQNPFGYPIGCSPQDVAIIPGLTMELYSYPIVSGTPPNCYDASYVDPEYPRTGYLKRKMVGKSTGVTGNLNYKYSVEKACMVKYGNLPAGYNYNEPLTVSNFTMILYGYFKAQTTGLHTFFVNADDLLYINFGAGNAFDCCKREDSKTKLGEYVAYDIWHVDSSKNKVSLFLEKDLYYPIRMFFNNRDNNSSLDLSFSVNGATDQISDFSGYLYSVPDQPDTCPAHIGYDTTCR
# Tests used:
# Assay in all cases: glycan array binding signal (z-score within array); higher = stronger binding
# Details in all cases: glycan notation: IUPAC condensed, linker removed
# Glc(b1-6)Glc = molecular target: Glc(b1-6)Glc
# Procedure, shortened: (§1)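 Glycan array binding is given as a within-array Z-score, which can be read as non-binding when negative. The arrays, 3228 of them, came from the Consortium for Functional Glycomics database and were retained only where the protein sequence was available. Z-scores were averaged across arrays of the same protein sequence at different concentrations or buffers and across linkers.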
# GlcA(b1-3)Gal = molecular target: GlcA(b1-3)Gal
# Procedure, shortened: as §1
# GlcA(b1-3)GlcNAc = molecular target: GlcA(b1-3)GlcNAc
# Procedure, shortened: as §1
# GlcA(b1-6)Gal = molecular target: GlcA(b1-6)Gal
# Procedure, shortened: as §1
# [1] = molecular target: GlcA3S(b1-3)Gal(b1-4)GlcNAc(b1-2)Man
# Procedure, shortened: as §1
# [2] = molecular target: GlcA3S(b1-3)Gal(b1-4)GlcNAc(b1-3)Gal(b1-4)Glc
# Procedure, shortened: as §1
# [3] = molecular target: GlcNAc(a1-3)Gal(b1-4)GlcNAc
# Procedure, shortened: as §1
# [4] = molecular target: GlcNAc(a1-4)Gal(b1-3)GlcNAc
# Procedure, shortened: as §1
# [5] = molecular target: GlcNAc(a1-4)Gal(b1-4)GalNAc
# Procedure, shortened: as §1
# [6] = molecular target: GlcNAc(a1-4)Gal(b1-4)GlcNAc
# Procedure, shortened: as §1
# [7] = molecular target: GlcNAc(a1-4)Gal(b1-4)GlcNAc(b1-3)Gal(b1-4)Glc
# Procedure, shortened: as §1
# [8] = molecular target: GlcNAc(a1-4)Gal(b1-4)GlcNAc(b1-3)Gal(b1-4)GlcNAc
# Procedure, shortened: as §1
# [9] = molecular target: GlcNAc(a1-4)Gal(b1-4)GlcNAc(b1-3)Gal(b1-4)GlcNAc(b1-3)Gal(b1-4)GlcNAc
# Procedure, shortened: as §1
# [10] = molecular target: GlcNAc(a1-4)Gal(b1-4)GlcNAc(b1-3)Gal(b1-4)[Fuc(a1-3)]GlcNAc(b1-3)Gal(b1-4)[Fuc(a1-3)]GlcNAc
# Procedure, shortened: as §1
# [11] = molecular target: GlcNAc(a1-6)Gal(b1-4)GlcNAc
# Procedure, shortened: as §1
# [12] = molecular target: GlcNAc(b1-2)Gal(b1-3)GalNAc
# Procedure, shortened: as §1
# [13] = molecular target: GlcNAc(b1-2)Man(a1-3)[GlcNAc(b1-2)Man(a1-6)]Man(b1-4)GlcNAc(b1-4)GlcNAc
# Procedure, shortened: as §1
# [14] = molecular target: GlcNAc(b1-2)Man(a1-3)[GlcNAc(b1-2)Man(a1-6)]Man(b1-4)GlcNAc(b1-4)[Fuc(a1-6)]GlcNAc
# Procedure, shortened: as §1
# [15] = molecular target: GlcNAc(b1-2)Man(a1-3)[GlcNAc(b1-4)][GlcNAc(b1-2)Man(a1-6)]Man(b1-4)GlcNAc(b1-4)GlcNAc
# Procedure, shortened: as §1
# [16] = molecular target: GlcNAc(b1-2)Man(a1-3)[GlcNAc(b1-4)][GlcNAc(b1-2)Man(a1-6)]Man(b1-4)GlcNAc(b1-4)[Fuc(a1-6)]GlcNAc
# Procedure, shortened: as §1
# [17] = molecular target: GlcNAc(b1-2)[GlcNAc(b1-4)]Man(a1-3)[GlcNAc(b1-2)Man(a1-6)]Man(b1-4)GlcNAc(b1-4)GlcNAc
# Procedure, shortened: as §1
# [18] = molecular target: GlcNAc(b1-2)[GlcNAc(b1-4)]Man(a1-3)[GlcNAc(b1-4)][GlcNAc(b1-2)Man(a1-6)]Man(b1-4)GlcNAc(b1-4)GlcNAc
# Procedure, shortened: as §1
# [19] = molecular target: GlcNAc(b1-2)[GlcNAc(b1-4)]Man(a1-3)[GlcNAc(b1-4)][GlcNAc(b1-2)[GlcNAc(b1-6)]Man(a1-6)]Man(b1-4)GlcNAc(b1-4)GlcNAc
# Procedure, shortened: as §1
# [20] = molecular target: GlcNAc(b1-2)[GlcNAc(b1-4)]Man(a1-3)[GlcNAc(b1-4)][GlcNAc(b1-2)[GlcNAc(b1-6)]Man(a1-6)]Man(b1-4)GlcNAc(b1-4)[Fuc(a1-6)]GlcNAc
# Procedure, shortened: as §1
# [21] = molecular target: GlcNAc(b1-2)[GlcNAc(b1-6)]Man(a1-6)[GlcNAc(b1-2)Man(a1-3)]Man(b1-4)GlcNAc(b1-4)GlcNAc
# Procedure, shortened: as §1
# [22] = molecular target: GlcNAc(b1-2)[GlcNAc(b1-6)]Man(a1-6)[GlcNAc(b1-2)Man(a1-3)]Man(b1-4)GlcNAc(b1-4)[Fuc(a1-6)]GlcNAc
# Procedure, shortened: as §1
# [23] = molecular target: GlcNAc(b1-2)[GlcNAc(b1-6)]Man(a1-6)[GlcNAc(b1-4)][GlcNAc(b1-2)Man(a1-3)]Man(b1-4)GlcNAc(b1-4)GlcNAc
# Procedure, shortened: as §1
# GlcNAc(b1-3)Fuc = molecular target: GlcNAc(b1-3)Fuc
# Procedure, shortened: as §1
# GlcNAc(b1-3)Gal = molecular target: GlcNAc(b1-3)Gal
# Procedure, shortened: as §1
# [24] = molecular target: GlcNAc(b1-3)Gal(b1-3)GalNAc
# Procedure, shortened: as §1
# GlcNAc(b1-3)Gal(b1-4)Glc = molecular target: GlcNAc(b1-3)Gal(b1-4)Glc
# Procedure, shortened: as §1
# [25] = molecular target: GlcNAc(b1-3)Gal(b1-4)GlcNAc
# Procedure, shortened: as §1
# [26] = molecular target: GlcNAc(b1-3)Gal(b1-4)GlcNAc(b1-2)Man(a1-3)[GlcNAc(b1-3)Gal(b1-4)GlcNAc(b1-2)Man(a1-6)]Man(b1-4)GlcNAc(b1-4)GlcNAc
# Procedure, shortened: as §1
# [27] = molecular target: GlcNAc(b1-3)Gal(b1-4)GlcNAc(b1-2)Man(a1-3)[GlcNAc(b1-3)Gal(b1-4)GlcNAc(b1-2)Man(a1-6)]Man(b1-4)GlcNAc(b1-4)[Fuc(a1-6)]GlcNAc
# Procedure, shortened: as §1
# [28] = molecular target: GlcNAc(b1-3)Gal(b1-4)GlcNAc(b1-2)[GlcNAc(b1-3)Gal(b1-4)GlcNAc(b1-6)]Man(a1-6)[GlcNAc(b1-3)Gal(b1-4)GlcNAc(b1-2)Man(a1-3)]Man(b1-4)GlcNAc(b1-4)GlcNAc
# Procedure, shortened: as §1
# [29] = molecular target: GlcNAc(b1-3)Gal(b1-4)GlcNAc(b1-3)Gal(b1-4)GlcNAc
# Procedure, shortened: as §1
# [30] = molecular target: GlcNAc(b1-3)Gal(b1-4)GlcNAc(b1-3)Gal(b1-4)GlcNAc(b1-2)Man(a1-3)[GlcNAc(b1-3)Gal(b1-4)GlcNAc(b1-3)Gal(b1-4)GlcNAc(b1-2)Man(a1-6)]Man(b1-4)GlcNAc(b1-4)GlcNAc
# Procedure, shortened: as §1
binder,measurement,setting,value
B1,glycan array binding signal (z-score),Glc(b1-6)Glc,-0.081
same,glycan array binding signal (z-score),GlcA(b1-3)Gal,-1.16
same,glycan array binding signal (z-score),GlcA(b1-3)GlcNAc,-0.485
same,glycan array binding signal (z-score),GlcA(b1-6)Gal,-1.12
same,glycan array binding signal (z-score),[1],0.15
same,glycan array binding signal (z-score),[2],0.034
same,glycan array binding signal (z-score),[3],-1.07
same,glycan array binding signal (z-score),[4],-1.92
same,glycan array binding signal (z-score),[5],-0.645
same,glycan array binding signal (z-score),[6],-0.555
same,glycan array binding signal (z-score),[7],0.002
same,glycan array binding signal (z-score),[8],-0.297
same,glycan array binding signal (z-score),[9],-0.047
same,glycan array binding signal (z-score),[10],2.65
same,glycan array binding signal (z-score),[11],1.07
same,glycan array binding signal (z-score),[12],-1.16
same,glycan array binding signal (z-score),[13],0.466
same,glycan array binding signal (z-score),[14],-0.32
same,glycan array binding signal (z-score),[15],1.19
same,glycan array binding signal (z-score),[16],-0.594
same,glycan array binding signal (z-score),[17],-0.097
same,glycan array binding signal (z-score),[18],0.595
same,glycan array binding signal (z-score),[19],-0.467
same,glycan array binding signal (z-score),[20],-0.111
same,glycan array binding signal (z-score),[21],-0.017
same,glycan array binding signal (z-score),[22],-0.719
same,glycan array binding signal (z-score),[23],-0.416
same,glycan array binding signal (z-score),GlcNAc(b1-3)Fuc,0.679
same,glycan array binding signal (z-score),GlcNAc(b1-3)Gal,-1.74
same,glycan array binding signal (z-score),[24],-0.266
same,glycan array binding signal (z-score),GlcNAc(b1-3)Gal(b1-4)Glc,-0.764
same,glycan array binding signal (z-score),[25],-1.06
same,glycan array binding signal (z-score),[26],-0.686
same,glycan array binding signal (z-score),[27],1.04
same,glycan array binding signal (z-score),[28],0.124
same,glycan array binding signal (z-score),[29],-1.41
same,glycan array binding signal (z-score),[30],-0.593

# 3 entries from above, bar-delimited:
binder | measurement | setting | value
B1 | glycan array binding signal (z-score) | [3] | -1.07
same | glycan array binding signal (z-score) | [5] | -0.645
same | glycan array binding signal (z-score) | GlcNAc(b1-3)Gal | -1.74
